In assay [1] the target is Mycobacterium tuberculosis ParA (M. tuberculosis) (UniProt A5U9P6). Nature of the assay: two-hybrid.
Assay [2] has as its target Mycobacterium tuberculosis ParB, wild type (M. tuberculosis H37Rv) (UniProt P9WIJ9). Description: two-hybrid.

No constants are given. Whether binding was seen depends on the method and setting. Some binding calls cover weakened binding; strength is not graded here. Sequences can lack the tags named with a protein.

B1: Mycobacterium tuberculosis ParB, wild type (protein, UniProt P9WIJ9 1-344)
chain: MTQPSRRKGGLGRGLAALIPTGPADGESGPPTLGPRMGSATADVVIGGPVPDTSVMGAIYREIPPSAIEANPRQPRQVFDEEALAELVHSIREFGLLQPIVVRSLAGSQTGVRYQIVMGERRWRAAQEAGLATIPAIVRETGDDNLLRDALLENIHRVQLNPLEEAAAYQQLLDEFGVTHDELAARIGRSRPLITNMIRLLKLPIPVQRRVAAGVLSAGHARALLSLEAGPEAQEELASRIVAEGLSVRATEETVTLANHEANRQAHHSDATTPAPPRRKPIQMPGLQDVAERLSTTFDTRVTVSLGKRKGKIVVEFGSVDDLARIVGLMTTDGRDKGLHRDAL
For the molecule B1, the binding result in assay [1] and in assay [2] was “binds” throughout.

The values are drawn from article PMC4373775.
